We go through 5 molecules from article PMC8185089.

By UniProt entry, the sequences of proteins in these tests, tags left out. Where a name states a change or a piece, a line headed by the entry shows the natural chain unless it says otherwise.
UniProt Q4F883: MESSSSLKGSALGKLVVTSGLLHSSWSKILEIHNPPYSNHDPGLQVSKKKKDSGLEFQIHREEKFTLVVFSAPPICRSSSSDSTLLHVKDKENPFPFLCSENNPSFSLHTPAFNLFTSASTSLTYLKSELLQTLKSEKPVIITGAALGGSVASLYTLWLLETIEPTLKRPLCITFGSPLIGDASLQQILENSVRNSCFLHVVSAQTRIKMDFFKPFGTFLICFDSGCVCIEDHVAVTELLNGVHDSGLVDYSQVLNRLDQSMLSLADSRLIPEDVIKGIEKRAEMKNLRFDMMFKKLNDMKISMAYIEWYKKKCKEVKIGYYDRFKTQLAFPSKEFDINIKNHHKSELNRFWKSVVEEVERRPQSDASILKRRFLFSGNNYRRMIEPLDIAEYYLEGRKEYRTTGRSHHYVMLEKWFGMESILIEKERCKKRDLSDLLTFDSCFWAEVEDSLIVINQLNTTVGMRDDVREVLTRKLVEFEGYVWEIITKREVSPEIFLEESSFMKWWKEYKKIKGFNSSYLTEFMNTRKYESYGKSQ
UniProt Q9FKZ1: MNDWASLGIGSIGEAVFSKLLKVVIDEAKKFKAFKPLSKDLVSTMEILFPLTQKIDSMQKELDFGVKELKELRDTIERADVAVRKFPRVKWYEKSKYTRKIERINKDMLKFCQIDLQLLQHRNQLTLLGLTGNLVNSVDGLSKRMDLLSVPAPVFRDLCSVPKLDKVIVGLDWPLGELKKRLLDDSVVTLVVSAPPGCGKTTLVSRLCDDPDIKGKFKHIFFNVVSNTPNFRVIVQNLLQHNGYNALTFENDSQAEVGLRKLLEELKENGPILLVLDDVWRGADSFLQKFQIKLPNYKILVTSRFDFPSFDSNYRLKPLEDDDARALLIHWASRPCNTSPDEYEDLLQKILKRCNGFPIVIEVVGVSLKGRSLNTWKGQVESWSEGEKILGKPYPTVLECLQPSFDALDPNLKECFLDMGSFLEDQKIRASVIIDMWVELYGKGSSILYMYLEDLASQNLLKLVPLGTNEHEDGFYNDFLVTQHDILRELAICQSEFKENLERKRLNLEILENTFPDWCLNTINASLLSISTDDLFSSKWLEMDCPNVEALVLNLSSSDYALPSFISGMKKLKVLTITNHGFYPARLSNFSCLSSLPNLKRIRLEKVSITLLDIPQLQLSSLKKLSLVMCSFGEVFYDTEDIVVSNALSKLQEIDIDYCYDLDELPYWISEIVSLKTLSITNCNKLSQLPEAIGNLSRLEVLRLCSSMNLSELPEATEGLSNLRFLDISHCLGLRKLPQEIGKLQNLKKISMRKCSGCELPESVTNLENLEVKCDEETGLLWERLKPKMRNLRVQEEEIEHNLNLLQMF
UniProt Q9FKZ0: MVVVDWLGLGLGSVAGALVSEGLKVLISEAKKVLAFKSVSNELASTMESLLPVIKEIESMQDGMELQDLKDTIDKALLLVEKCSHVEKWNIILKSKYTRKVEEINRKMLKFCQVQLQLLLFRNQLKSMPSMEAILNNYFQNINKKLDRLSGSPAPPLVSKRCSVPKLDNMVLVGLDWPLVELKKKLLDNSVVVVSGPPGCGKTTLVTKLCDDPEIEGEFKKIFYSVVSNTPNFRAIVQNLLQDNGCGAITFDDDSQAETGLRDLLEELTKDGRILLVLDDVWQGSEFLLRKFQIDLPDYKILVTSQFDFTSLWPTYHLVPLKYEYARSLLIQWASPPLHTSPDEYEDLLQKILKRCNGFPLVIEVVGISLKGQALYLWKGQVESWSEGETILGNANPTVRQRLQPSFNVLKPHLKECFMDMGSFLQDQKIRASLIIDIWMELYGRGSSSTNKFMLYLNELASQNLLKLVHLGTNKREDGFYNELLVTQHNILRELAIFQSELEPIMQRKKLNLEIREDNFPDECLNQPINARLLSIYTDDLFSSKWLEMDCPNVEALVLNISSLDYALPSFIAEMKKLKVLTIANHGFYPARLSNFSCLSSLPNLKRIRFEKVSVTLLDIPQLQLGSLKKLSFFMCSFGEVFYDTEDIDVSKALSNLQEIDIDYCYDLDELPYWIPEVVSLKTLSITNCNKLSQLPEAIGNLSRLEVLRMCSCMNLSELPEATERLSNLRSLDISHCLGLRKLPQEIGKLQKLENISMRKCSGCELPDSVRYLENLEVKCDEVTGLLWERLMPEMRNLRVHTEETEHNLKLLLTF
UniProt Q9LZ25: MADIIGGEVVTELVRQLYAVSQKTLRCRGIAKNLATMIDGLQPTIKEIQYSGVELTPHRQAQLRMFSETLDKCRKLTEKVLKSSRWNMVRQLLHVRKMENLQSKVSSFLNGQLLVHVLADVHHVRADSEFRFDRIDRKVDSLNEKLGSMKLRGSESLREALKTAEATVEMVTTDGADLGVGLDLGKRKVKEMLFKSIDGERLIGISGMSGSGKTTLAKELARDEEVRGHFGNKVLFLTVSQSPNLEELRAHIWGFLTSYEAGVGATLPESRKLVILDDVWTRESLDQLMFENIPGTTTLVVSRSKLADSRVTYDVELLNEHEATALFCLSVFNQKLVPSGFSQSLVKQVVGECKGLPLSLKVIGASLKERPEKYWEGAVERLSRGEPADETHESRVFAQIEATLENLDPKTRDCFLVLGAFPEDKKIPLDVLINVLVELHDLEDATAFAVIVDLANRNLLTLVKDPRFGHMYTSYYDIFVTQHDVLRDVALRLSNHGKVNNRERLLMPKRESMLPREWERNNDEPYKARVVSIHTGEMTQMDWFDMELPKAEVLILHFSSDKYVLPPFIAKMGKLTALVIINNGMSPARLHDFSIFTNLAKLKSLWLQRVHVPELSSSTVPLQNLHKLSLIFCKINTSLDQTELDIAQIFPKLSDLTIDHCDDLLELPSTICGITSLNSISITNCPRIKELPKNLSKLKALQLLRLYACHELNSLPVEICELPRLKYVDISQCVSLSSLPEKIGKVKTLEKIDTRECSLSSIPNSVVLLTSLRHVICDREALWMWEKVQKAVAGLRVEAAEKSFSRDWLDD

For assay [1], the target named is SAG101-YFP (pSAG101:SAG101-YFP) (Arabidopsis thaliana) (UniProt Q4F883). Kind of assay: affinity purification with mass spectrometry.
Assay [2] has the same target. Put plainly: affinity purification with mass spectrometry; GFP-trap agarose IP of SAG101-YFP, YFP-PAD4 or YFP-SH from total soluble leaf extracts of Arabidopsis lines, 6 hpi with Pf0-1 avrRps4 (OD 0.2); 20 mM PIPES-KOH pH 7.0, 150 mM NaCl, 10 mM MgCl2, 1% Triton X-100, 4 °C; LC-MS, label-free quantification.
For assay [3], the target named is T1, YFP-PAD4 (pPAD4:YFP-Linker-PAD4) (Arabidopsis thaliana) (UniProt Q9S745).
T1 sequence: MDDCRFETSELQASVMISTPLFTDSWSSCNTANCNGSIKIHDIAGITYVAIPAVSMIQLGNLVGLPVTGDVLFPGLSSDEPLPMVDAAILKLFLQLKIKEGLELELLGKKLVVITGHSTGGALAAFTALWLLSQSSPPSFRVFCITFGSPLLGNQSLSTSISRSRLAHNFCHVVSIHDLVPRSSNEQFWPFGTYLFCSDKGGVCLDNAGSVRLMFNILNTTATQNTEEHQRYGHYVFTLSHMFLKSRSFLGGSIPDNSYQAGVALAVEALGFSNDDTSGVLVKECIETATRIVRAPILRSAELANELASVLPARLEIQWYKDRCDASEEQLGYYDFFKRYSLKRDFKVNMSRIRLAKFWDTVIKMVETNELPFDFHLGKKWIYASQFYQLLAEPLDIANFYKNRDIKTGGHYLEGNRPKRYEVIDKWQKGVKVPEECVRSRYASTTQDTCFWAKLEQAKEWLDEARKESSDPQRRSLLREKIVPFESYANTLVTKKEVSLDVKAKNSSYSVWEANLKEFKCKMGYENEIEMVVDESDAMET
The description is as above.

These are yes or no findings as the source states them, for the method shown. Binding seen in cells or lysates may run through a third protein. Here binding means that the protein was enriched with, or labelled near, the bait; the list need not be complete. For part of these data: No binding means not detected with the bait. For part of these data: Where a sequence is shown, tags or fusion partners need not be part of it.

For the molecule “NRG1.1 (endogenous, Col) (from UniProt Q9FKZ1)”, the binding entry in assay [1] was “binds”. With “NRG1.2 (endogenous, Col) (from UniProt Q9FKZ0)”, the binding result was “binds” in assay [2] and “no binding” in assay [3]. Consider “ADR1-L2 (endogenous, Col) (from UniProt Q9LZ25)”, for which the binding entry in assay [2] is given as “no binding”; in assay [3], “binds”.

B1: EDS1B (native Col-0 EDS1 isoform) (protein, UniProt Q9SU71 1-629)
chain: MAFEALTGVNGDLVTISWMASKGANQTEHYLKEEVGGTVFFAFRASFSSEDLFATENTSPFGEIKMKRNQFPCMRSIGNDVDTTVNEAFLKSLEVLIGPRTSFHASVQSAVDRKQQVVFTGHSFGGATAILATVWYLETYFIRDAYAAPEPRCVTFGAPLVGDYIFKHALGRENWSRFFVNFVTRFDIVPRIMLARKTTIEQTLSYVLGKLDSTRAPIHESDQVITEFYTRVMRDTYTVASKAVCQLIGNGEAFLETLSSFYELSPYRPVGTFVFSTQKRLVVVNNSDAILQMLFYTCQSNDEQELSVIPFLSIRDHHGYEELVQSIGIKLLNHLDLHNPLLDGENSIGSALDDLGMSTRARQCIHAALEAEKQRVENQKKIETKRDQIVERLTWIVEVYKPKCQAHKNGYYDSFKDSNEENDFKANVKRVELAGIFDEVLGLVKKGQLPDGFEGSRGWINLATQYRRLIEPLDISNYHGQLKNEDTGPYMLHGRPSRYKYAQRGYEHDILKPTGMIAKDVFWSKVNGLNLGLQQDIQEILKNSGSECGSCFWAEVEELKGKPYEEVQVRFKTLEGLLEGWIKDGEVDEKEIFLEGSTFRKWWNTLPDSHKIHAPLYPRERMMDETRAT
Consider B1, for which the binding result in assay [2] and in assay [3] was “binds” throughout.

B2: EDS1A (native Col-0 EDS1 isoform) (protein, UniProt Q9SU72 1-623)
chain: MAFEALTGINGDLITRSWSASKQAYLTERYHKEEAGAVVIFAFQPSFSEKDFFDPDNKSSFGEIKLNRVQFPCMRKIGKGDVATVNEAFLKNLEAIIDPRTSFQASVEMAVRSRKQIVFTGHSSGGATAILATVWYLEKYFIRNPNVYLEPRCVTFGAPLVGDSIFSHALGREKWSRFFVNFVSRFDIVPRIMLARKASVEETLPHVLAQLDPRKSSVQESEQRITEFYTRVMRDTSTVANQAVCELTGSAEAFLETLSSFLELSPYRPAGTFVFSTEKRLVAVNNSDAILQMLFYTSQASDEQEWSLIPFRSIRDHHSYEELVQSMGKKLFNHLDGENSIESTLNDLGVSTRGRQYVQAALEEEKKRVENQKKIIQVIEQERFLKKLAWIEDEYKPKCQAHKNGYYDSFKVSNEENDFKANVKRAELAGVFDEVLGLMKKCQLPDEFEGDIDWIKLATRYRRLVEPLDIANYHRHLKNEDTGPYMKRGRPTRYIYAQRGYEHYILKPNGMIAEDVFWNKVNGLNLGLQLEEIQETLKNSGSECGSCFWAEVEELKGKPYEEVEVRVKTLEGMLGEWITDGEVDDKEIFLEGSTFRKWWITLPKNHKSHSPLRDYMMDEITDT
For the molecule B2, the binding entry in assay [2] and in assay [3] was “binds” throughout.
